## Library screening results

From ChEMBL document CHEMBL3988442, “University of Dundee, Small-Polar-MMV Screening Library” (2021).

The filed quantity is “Percent Effect” (%).
The record does not define 0% and 100%; most values in the screen are far below 50% and negative numbers occur (in some assays of this library far below -100).
Compounds were drawn at random from those tested, without regard to their results.

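Whole-cell assay for inhibitors of Mycobacterium tuberculosis growth, labelled Cornell in the record; the read-out is not stated. The concentration is filed as 10 mM, unlikely as a test dose, so the dose is not known. The record gives no direction; compounds strong in two other growth screens of this library score well above the rest, so higher reads as stronger inhibition. Size under these conditions: about 53,000 compounds, about 900 of them at 50% or above in at least one test.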

| SMILES | effect |
|---|---|
| `O=C1c2ccccc2C(=O)N1CC(O)Cn1nc(-c2cccs2)oc1=O` (stereo not shown) | -44.57 |
| `Cn1ccc(C(=O)N2CCCN(CCCc3ccccc3)CC2)cc1=O` | 16.79 |
| `Cc1ccc(CNC(=O)c2cc(Cn3ccnc3C(C)C)[nH]n2)o1` | -14.72 |
| `COCc1cnc2n1CCN(S(=O)(=O)c1c(C)nn(C)c1C)C2C` (stereo not shown) | -37.24 |
| `[H][C@@]12CCCO[C@]1([H])[C@H](NS(C)(=O)=O)CN2C(=O)c1cnccn1` | -34.02 |
| `CCCOC1CCCN(c2ccnc(C(=O)NCc3ccco3)c2)C1` (stereo not shown) | 17.48 |
| `O=C(O)C(F)(F)F.O=C(O)C(F)(F)F.c1cncc(CN2CCc3ncnc(C4CC4)c3CC2)c1` | -7.401 |
| `CN(C)CCNC(=O)c1cc(-c2cnc(N3CCOCC3)nc2)cn1C.O=C(O)C(F)(F)F` | -31.78 |
| `[H][C@]12CN(Cc3cccc(OC(F)(F)F)c3)CCN1C(=O)N(C)C2` | -18.44 |
| `CC(=O)N1CCC12CCN(Cc1ccco1)CC2.O=C(O)C(F)(F)F` | -25.99 |
| `O=C(c1cncc(N2CCC(O)(CO)CC2)n1)N1CCCC1` | 6.487 |
| `Cc1ccc(-c2c[nH]c([C@@H]3COCCN3Cc3cccnc3)n2)cc1` | -23.57 |
| `O=C(Nc1ccc(-c2ccco2)cc1)C1CCCN(Cc2ccon2)C1` (stereo not shown) | 17.02 |
| `Cc1c(C(=O)N2C[C@@H](CN(C)CCO)[C@@H](CO)C2)sc2ccccc12` | -55.4 |
| `Cc1cnn(CC2CCCCN2C(=O)c2csc(C)n2)c1` (stereo not shown) | 16.25 |
| `[H][C@@]12C[C@H](c3nnc(C)o3)CN(S(=O)(=O)CC)[C@]1([H])CCO2` | 26.99 |
| `CCNC(=O)NC(=O)CNC(C)(CC)c1nccs1` (stereo not shown) | -5.993 |
| `[H][C@]12C[C@H](C(=O)NCC3CC3)N(C)[C@@]1([H])CN(Cc1ccoc1)C2` | -8.338 |
| `CN1CCN(c2ccccc2NC(=O)NCC[S+](C)[O-])CC1` (stereo not shown) | -5.942 |
| `Cc1ccsc1-c1nccn1CCS(=O)(=O)N1CCCC1` | -15.59 |
| `CC(=O)NCC(=O)N1Cc2nccn2CC(CN2CCCC2)C1` (stereo not shown) | 17.94 |
| `CC(C)(C)NC(=O)NCc1cnn2ccccc12` | -74.52 |
| `NC(=O)NC(=O)C(c1ccccc1)N1CCN(Cc2ccccc2)CC1` (stereo not shown) | 1.63 |
| `COCC(=O)N1CCC2(CCN(Cc3ccccn3)CC2)CC1` | -13.36 |
| `O=C(NC1CCCC1)C1CCN(c2cc(-n3ccnc3)ncn2)CC1` | -33.39 |
| `O=C(O)C(F)(F)F.O=C1CCC2(CCN(c3ncc(F)cn3)CC2)N1Cc1ccncc1` | -38.75 |
| `COc1ccccc1N1CCC(CNC(=O)N(C)Cc2ccco2)C1` (stereo not shown) | 23.34 |
| `COc1cn(-c2ccccc2)nc1C(=O)NCCCN1CCCC(C)C1` (stereo not shown) | 10.67 |
| `CO[C@@H]1CCN(S(=O)(=O)c2cn(C)cn2)[C@H]1Cc1cnn(C)c1.O=C(O)C(F)(F)F` | 13.37 |
| `Cc1cc(C)n(CCN2CCN(C(=O)c3ccccc3Br)CC2)n1` | -1.456 |
| `Cc1ccc2c(c1)C(=O)NCC1(CCN(C(=O)c3cc(C)no3)CC1)O2` | -8.769 |
| `CCOc1ccnc(N2CCN(C(=O)c3cccnc3O)CC2)n1` | 21.12 |
| `O=C(O)C(F)(F)F.O=C(O)C(F)(F)F.O=C1NC2(CCN(Cc3cccs3)CC2)CC1c1ccncc1` (stereo not shown) | -24.93 |
| `Cc1cn2nc(N3CCCC3Cn3cncn3)sc2n1` (stereo not shown) | -21.47 |
| `O=C(O)C(F)(F)F.[H][C@@]12OCCN(C(=O)CCc3ccccc3)[C@@]1([H])CC[C@H]2OCCN(C)C` | 28.52 |
| `COCc1cc(NCCc2ccc(OC)cc2)n2nccc2n1` | 20.45 |
| `O=C(O)C(F)(F)F.[H][C@]12C[C@@H](C(=O)NCc3cccs3)CO[C@@]1([H])CCN(C1CCCC1)C2` | 6.184 |
| `CCS(=O)(=O)N1CCC(CSc2ccccc2)C1` (stereo not shown) | 27.65 |
| `O=C(C1CC1)N1Cc2[nH]nc(COCc3cccnc3)c2C1.O=C(O)C(F)(F)F.O=C(O)C(F)(F)F` | -1.395 |
| `CC(C)Oc1cccc(C(O)CNC(=O)NCc2cccs2)c1` (stereo not shown) | 7.446 |
| `CCNC(=O)CCN1CCC(c2cc(N3CCOCC3)nc(C)n2)CC1` | 29.37 |
| `CCc1ncc2c(n1)CN(Cc1cc(C)on1)CC2` | -7.768 |
| `CCc1noc(CS(=O)(=O)Cc2nc(Cc3ccccc3)no2)n1` | -28.54 |
| `CCc1c(C)nn2c(O)cc(C3CCN(C(=O)C4CC4)C3)nc12` (stereo not shown) | 9.719 |
| `COCC(=O)NC(c1ccc(Cl)cc1)c1noc(C)n1` (stereo not shown) | 10.55 |
| `CC(C)[C@H]1CN(c2ccncc2)C[C@@H]1NC(=O)C1(C#N)CCOCC1` | 12.94 |
| `O=C(NCC1CCCN(Cc2cccc3nonc23)C1)c1ccc[nH]1` (stereo not shown) | 31.68 |
| `CNc1cccc(C2CCCN(C(=O)Cc3ccccc3)C2)n1` (stereo not shown) | 37.39 |
| `OCc1ccc(CNc2ccccc2CN2CCC(O)CC2)o1` | 4.137 |
| `CC(C)Sc1ncccc1C(=O)NCc1ccoc1` | -32.95 |
| `Cn1cccc1CCC(=O)N1CCC2(CC1)c1ccccc1CC2O` (stereo not shown) | 27.14 |
| `[H][C@]12CC[C@]([H])(CN(c3ncccn3)C1)N(C(=O)CSc1nc(C)n[nH]1)C2` | -5.333 |
| `Cc1nn(C)c(C)c1-c1cnc(CC2CCNC2)cn1` (stereo not shown) | 33.04 |
| `CCC[C@@H]1CN(c2ncnc3ccsc23)C[C@H]1NS(C)(=O)=O` | 13.93 |
| `CSCC(CCO)NC(=O)c1cccc(F)c1Cl` (stereo not shown) | 4.497 |
| `c1cc(N2CCC3(COCc4cnc(NCC5CC5)nc43)C2)ncn1` (stereo not shown) | -36.85 |
| `COCC(=O)NC(C)c1sc(-c2ccccc2F)nc1C` (stereo not shown) | -7.983 |
| `Cc1cnn(-c2cccc(N3CCCC3)n2)c1` | 40.78 |
| `CCCOC(=O)C(C)Sc1nnnn1C1CCOCC1` (stereo not shown) | -20.57 |
| `Cc1cc2n(n1)CC(CNCc1ccc(OCC3CC3)nc1)CN2` (stereo not shown) | -56.36 |
| `[H][C@]12CCN(C(=O)Cc3ccc(OC)cc3)[C@@]1([H])CCC(=O)N2` | 1.09 |
| `COc1ncc(NCc2ccc(C#N)cc2)cc1C(N)=O` | 10.53 |
| `Cc1n[nH]c(C2CN(C(=O)CCc3ccsc3)CCO2)n1` (stereo not shown) | 7.872 |
| `COC(=O)[C@@H]1CCCN1C(=O)c1cn(C/C=C/c2ccccc2)nn1` | -13.38 |
| `[H][C@@]12COC[C@]1(COc1cccnc1)CN(C(=O)c1cocn1)C2` | -15.1 |
| `COc1ccc(C(=O)Nc2ccccc2C(C)C)c(OC)n1` | -2.182 |
| `CCOCCCC(=O)NCCC(=O)N1CCN(c2ccccn2)CC1` | -11.82 |
| `CC(C)CNC(=O)C1(Cc2ccccc2-c2ccccc2)CCNC1` (stereo not shown) | -26.45 |
| `O=C(c1cc(Cl)c[nH]1)N(CCCO)Cc1cccnc1` | -24.18 |
| `COc1ccc(NC(=O)CCC(C)C)c(N2CCN(C(C)=O)CC2)n1` | -9.678 |

5 of the entries, repeated:

{"smiles": "COc1ccc(NC(=O)CCC(C)C)c(N2CCN(C(C)=O)CC2)n1", "effect": -9.678}
{"smiles": "O=C(NCC1CCCN(Cc2cccc3nonc23)C1)c1ccc[nH]1", "stereo": "stereo not shown", "effect": 31.68}
{"smiles": "CCCOC(=O)C(C)Sc1nnnn1C1CCOCC1", "stereo": "stereo not shown", "effect": -20.57}
{"smiles": "COc1cn(-c2ccccc2)nc1C(=O)NCCCN1CCCC(C)C1", "stereo": "stereo not shown", "effect": 10.67}
{"smiles": "O=C(O)C(F)(F)F.[H][C@@]12OCCN(C(=O)CCc3ccccc3)[C@@]1([H])CC[C@H]2OCCN(C)C", "effect": 28.52}